This passage reports binding results from publication PMC11412891.

Amino acid sequences for entries named in this document (tags omitted).
UniProt O75643: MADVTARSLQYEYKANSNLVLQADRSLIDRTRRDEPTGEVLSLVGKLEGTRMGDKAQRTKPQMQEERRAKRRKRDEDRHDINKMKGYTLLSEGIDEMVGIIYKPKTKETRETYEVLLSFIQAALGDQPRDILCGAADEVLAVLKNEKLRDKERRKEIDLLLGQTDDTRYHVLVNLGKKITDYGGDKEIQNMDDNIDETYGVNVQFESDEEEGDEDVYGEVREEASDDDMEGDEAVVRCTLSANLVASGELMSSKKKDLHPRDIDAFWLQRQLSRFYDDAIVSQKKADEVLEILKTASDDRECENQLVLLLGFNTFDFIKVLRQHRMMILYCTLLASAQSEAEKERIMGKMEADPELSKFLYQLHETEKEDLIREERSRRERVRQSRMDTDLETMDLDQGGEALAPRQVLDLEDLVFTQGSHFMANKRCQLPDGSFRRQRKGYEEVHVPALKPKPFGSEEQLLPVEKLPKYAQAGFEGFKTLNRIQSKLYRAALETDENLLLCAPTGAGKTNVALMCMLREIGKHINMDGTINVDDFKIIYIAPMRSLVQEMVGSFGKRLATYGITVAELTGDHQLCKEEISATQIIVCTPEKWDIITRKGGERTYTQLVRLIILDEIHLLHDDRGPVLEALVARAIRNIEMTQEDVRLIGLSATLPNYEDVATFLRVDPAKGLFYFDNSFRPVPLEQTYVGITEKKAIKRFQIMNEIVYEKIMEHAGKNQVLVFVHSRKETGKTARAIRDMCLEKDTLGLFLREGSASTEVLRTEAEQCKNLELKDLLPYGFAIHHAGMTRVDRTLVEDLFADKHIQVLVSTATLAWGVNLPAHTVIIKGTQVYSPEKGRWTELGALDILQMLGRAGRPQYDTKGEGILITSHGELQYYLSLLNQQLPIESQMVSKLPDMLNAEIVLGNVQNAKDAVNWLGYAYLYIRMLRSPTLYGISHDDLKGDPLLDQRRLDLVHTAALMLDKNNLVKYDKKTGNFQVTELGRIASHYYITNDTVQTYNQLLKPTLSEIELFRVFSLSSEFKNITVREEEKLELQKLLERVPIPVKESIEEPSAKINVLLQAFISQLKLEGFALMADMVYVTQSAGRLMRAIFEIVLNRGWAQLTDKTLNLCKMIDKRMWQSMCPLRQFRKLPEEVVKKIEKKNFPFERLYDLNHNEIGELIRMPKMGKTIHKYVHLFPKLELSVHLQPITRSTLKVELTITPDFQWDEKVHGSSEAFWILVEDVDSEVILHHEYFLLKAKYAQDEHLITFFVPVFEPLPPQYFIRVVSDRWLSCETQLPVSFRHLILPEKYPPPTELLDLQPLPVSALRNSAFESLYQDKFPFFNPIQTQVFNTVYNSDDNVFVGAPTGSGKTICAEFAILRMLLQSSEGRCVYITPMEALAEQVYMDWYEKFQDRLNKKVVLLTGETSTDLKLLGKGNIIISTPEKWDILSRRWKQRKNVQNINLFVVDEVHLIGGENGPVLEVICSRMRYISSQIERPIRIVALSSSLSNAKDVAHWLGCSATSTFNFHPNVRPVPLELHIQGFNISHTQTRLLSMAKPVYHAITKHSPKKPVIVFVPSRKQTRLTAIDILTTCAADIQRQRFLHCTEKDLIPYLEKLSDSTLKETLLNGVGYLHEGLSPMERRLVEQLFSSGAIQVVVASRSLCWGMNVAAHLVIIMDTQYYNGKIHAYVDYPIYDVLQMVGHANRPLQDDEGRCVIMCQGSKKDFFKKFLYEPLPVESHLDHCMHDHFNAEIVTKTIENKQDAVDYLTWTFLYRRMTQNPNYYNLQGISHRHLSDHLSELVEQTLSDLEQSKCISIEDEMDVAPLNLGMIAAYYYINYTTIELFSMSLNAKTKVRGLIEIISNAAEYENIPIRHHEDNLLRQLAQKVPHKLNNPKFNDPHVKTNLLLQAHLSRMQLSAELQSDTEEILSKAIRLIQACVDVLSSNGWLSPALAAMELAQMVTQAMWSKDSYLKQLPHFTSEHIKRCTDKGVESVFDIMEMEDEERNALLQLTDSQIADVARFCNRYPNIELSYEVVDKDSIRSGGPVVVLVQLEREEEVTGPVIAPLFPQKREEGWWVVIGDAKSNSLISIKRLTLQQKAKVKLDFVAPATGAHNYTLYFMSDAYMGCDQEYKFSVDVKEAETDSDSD
UniProt Q96T58: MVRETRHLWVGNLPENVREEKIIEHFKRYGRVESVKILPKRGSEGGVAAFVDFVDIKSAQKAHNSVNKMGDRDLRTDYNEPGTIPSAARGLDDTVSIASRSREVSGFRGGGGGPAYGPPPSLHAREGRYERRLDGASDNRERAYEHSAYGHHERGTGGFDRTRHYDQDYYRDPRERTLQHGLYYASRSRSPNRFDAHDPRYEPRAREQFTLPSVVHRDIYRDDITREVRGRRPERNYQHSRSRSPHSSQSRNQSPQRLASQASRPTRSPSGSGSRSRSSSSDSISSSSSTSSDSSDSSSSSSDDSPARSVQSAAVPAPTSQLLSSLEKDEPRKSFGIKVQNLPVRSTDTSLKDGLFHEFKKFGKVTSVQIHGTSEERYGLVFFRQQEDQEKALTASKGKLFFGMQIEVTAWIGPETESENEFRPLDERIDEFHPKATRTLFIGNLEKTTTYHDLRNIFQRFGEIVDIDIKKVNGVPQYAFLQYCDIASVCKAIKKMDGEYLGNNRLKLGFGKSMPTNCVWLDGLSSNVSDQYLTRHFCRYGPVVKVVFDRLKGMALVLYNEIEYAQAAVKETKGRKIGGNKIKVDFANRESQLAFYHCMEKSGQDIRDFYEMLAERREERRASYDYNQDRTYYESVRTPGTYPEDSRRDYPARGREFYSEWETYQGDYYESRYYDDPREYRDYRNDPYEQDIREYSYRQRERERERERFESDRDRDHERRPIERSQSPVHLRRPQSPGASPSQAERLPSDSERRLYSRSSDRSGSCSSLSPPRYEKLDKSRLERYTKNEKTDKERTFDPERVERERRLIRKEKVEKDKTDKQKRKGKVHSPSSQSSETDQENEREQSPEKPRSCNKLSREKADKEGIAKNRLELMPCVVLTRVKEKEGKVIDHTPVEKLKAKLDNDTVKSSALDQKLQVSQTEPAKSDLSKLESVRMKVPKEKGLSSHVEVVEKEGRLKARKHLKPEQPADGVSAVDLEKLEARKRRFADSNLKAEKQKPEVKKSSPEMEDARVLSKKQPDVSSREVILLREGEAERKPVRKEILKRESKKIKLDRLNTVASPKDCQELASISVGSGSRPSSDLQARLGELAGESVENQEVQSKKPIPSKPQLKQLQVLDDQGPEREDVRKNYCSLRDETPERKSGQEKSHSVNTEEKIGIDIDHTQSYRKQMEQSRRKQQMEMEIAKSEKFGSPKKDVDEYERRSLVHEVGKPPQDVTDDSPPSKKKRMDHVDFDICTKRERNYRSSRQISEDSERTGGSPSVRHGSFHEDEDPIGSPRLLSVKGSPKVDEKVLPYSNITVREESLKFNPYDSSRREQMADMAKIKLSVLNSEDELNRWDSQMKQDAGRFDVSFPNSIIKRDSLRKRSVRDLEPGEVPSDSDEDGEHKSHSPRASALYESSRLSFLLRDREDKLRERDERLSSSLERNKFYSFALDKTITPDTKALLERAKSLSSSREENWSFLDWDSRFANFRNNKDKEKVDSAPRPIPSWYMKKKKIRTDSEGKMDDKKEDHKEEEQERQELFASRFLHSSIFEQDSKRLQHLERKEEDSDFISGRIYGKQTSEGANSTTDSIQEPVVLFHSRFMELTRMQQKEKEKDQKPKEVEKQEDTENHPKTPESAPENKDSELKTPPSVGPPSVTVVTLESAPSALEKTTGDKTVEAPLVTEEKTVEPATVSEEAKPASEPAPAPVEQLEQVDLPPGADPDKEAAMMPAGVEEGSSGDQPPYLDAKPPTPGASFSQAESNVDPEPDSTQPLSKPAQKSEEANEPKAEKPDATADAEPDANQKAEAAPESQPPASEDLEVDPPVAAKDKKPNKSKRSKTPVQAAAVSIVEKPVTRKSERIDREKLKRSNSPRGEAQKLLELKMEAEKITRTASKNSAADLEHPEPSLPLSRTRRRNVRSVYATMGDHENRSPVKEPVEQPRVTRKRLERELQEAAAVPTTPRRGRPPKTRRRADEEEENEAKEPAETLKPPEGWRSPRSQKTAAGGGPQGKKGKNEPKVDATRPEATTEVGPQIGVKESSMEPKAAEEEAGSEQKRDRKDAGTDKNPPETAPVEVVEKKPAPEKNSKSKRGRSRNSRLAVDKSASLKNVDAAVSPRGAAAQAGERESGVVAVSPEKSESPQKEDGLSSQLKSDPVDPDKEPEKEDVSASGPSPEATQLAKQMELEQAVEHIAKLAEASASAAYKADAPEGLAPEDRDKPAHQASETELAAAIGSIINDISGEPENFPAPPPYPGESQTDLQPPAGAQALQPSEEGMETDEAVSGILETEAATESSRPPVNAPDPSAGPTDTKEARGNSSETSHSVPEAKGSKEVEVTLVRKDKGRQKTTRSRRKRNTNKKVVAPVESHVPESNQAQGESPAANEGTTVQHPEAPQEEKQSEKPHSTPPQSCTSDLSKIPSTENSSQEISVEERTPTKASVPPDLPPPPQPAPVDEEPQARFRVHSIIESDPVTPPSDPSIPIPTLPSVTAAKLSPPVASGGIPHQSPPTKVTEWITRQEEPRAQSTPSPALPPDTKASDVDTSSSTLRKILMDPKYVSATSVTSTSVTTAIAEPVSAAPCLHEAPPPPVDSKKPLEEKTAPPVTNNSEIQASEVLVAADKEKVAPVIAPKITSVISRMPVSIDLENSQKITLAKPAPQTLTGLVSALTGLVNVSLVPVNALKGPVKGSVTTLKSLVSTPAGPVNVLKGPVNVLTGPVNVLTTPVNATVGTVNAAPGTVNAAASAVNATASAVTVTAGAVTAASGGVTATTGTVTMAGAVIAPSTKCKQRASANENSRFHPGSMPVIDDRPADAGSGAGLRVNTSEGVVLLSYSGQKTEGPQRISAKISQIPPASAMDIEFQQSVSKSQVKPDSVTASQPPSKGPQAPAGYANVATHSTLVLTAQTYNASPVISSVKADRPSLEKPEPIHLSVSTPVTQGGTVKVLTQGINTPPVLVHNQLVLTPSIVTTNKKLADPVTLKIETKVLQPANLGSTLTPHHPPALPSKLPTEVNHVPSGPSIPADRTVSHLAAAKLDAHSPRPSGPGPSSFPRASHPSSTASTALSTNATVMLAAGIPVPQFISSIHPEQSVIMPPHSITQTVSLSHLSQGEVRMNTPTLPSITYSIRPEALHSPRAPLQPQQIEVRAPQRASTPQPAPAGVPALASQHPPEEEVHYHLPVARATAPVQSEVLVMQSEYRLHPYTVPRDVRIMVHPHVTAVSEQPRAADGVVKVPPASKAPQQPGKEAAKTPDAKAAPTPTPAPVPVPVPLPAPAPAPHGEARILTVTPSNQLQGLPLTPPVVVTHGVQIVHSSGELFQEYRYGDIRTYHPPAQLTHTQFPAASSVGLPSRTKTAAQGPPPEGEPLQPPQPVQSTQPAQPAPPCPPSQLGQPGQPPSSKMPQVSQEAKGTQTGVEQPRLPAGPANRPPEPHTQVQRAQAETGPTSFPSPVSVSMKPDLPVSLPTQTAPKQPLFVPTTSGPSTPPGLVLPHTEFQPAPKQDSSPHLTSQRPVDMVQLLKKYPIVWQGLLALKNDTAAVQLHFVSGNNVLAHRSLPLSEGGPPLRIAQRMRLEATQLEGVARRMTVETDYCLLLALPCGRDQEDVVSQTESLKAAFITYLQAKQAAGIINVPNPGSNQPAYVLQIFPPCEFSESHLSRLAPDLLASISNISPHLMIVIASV
UniProt Q9Y5U2: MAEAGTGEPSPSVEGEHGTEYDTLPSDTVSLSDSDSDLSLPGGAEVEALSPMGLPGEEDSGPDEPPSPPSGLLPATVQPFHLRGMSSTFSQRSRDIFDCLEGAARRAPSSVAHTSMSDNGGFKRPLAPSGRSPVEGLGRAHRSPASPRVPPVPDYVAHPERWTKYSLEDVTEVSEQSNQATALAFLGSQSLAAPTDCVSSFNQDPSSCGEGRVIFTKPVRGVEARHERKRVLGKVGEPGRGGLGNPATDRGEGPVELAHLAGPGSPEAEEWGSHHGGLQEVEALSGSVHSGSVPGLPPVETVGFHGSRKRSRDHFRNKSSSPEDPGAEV
UniProt O95218: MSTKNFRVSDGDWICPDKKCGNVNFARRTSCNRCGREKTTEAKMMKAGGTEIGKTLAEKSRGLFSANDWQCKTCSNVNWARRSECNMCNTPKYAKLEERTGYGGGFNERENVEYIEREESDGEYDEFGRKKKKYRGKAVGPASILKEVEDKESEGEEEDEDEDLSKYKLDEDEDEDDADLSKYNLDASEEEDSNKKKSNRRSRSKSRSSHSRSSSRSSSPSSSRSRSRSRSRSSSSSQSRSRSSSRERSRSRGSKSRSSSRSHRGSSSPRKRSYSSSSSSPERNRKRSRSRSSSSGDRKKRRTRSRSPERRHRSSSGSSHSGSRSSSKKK

Results are given in words; binding and its absence hold for the method and conditions named. Binding seen in cells or lysates may run through a third protein. Some entries that bind do so weakly or less than the wild type. Where a sequence is shown, tags or fusion partners need not be part of it.

The target in this assay is T1, CD2 Binding Protein 2 (CD2BP2/U5-52K), FLAG-tagged (human) (UniProt O95400).
T1 sequence: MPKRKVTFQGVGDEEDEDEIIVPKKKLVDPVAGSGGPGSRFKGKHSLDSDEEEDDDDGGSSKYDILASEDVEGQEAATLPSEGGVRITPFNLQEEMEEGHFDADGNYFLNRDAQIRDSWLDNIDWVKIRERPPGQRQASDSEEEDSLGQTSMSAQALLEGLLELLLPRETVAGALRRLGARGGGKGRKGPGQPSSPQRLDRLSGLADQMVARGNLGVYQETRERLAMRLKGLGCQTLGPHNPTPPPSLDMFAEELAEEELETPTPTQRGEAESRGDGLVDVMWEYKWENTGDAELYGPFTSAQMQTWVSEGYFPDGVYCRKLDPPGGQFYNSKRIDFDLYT
The experiment in a line: cross-linking; anti-FLAG IP of CD2BP2-FLAG from HEK293T CD2BP2-/- lysate (~100 mg protein), on-bead crosslinking with DSSO, tryptic digest, LC-MS2-MS3, XlinkX, 1 % FDR; two technical and two biological replicates.
Consider “Brr2 - SNRNP200 (from UniProt O75643 1-2136)”, for which the binding result is listed as “binds”.
As for DYNC1I2 (from UniProt Q13409 1-638), the entry is “binds”.
Then IK - RED (from UniProt Q13123 1-557), with “binds”; and SPEN (from UniProt Q96T58 1-3664), with “binds”; and TSSC4 (from UniProt Q9Y5U2 1-329), with “binds”.
Then ZRANB2 (from UniProt O95218 1-330), with “binds”.
